Experimental data published in publication PMC9408947.
Results are given in words; binding and its absence hold for the method and conditions named. In cells and extracts the contact can be indirect. Some binding calls cover weakened binding; strength is not graded here. Blank lines part the entries; values can stand above or below the molecule they belong to.

Sequences of proteins named here, by UniProt entry; tags and fusion partners are left off. A change or cut given only in a name is not applied to a line headed by its entry. A line that says so, or that is headed by a name, gives the form on record, which may keep a tag or linker. Residues count along the entry.
GRP78-NV (full-length GRP78 with N-Venus, BiFC construct) (P11021, residues 19-654): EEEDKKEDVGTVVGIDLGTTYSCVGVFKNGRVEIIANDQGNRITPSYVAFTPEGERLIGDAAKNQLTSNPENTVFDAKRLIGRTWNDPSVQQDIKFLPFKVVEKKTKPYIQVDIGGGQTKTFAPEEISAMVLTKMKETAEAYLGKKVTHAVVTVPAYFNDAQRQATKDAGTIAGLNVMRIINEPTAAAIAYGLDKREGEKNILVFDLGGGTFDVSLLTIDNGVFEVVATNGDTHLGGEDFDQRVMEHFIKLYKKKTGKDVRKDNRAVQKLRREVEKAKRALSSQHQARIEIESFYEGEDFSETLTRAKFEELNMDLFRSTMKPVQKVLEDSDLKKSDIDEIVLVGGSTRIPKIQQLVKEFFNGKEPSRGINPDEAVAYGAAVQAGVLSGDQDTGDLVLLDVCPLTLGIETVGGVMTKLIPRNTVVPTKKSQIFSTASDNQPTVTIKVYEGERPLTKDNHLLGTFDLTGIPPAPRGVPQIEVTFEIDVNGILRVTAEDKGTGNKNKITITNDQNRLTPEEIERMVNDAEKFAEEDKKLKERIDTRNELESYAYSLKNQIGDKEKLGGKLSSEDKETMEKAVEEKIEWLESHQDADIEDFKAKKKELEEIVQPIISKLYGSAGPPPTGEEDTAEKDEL
nucleotide-binding domain of GRP78 (BiFC construct) (P11021, form named): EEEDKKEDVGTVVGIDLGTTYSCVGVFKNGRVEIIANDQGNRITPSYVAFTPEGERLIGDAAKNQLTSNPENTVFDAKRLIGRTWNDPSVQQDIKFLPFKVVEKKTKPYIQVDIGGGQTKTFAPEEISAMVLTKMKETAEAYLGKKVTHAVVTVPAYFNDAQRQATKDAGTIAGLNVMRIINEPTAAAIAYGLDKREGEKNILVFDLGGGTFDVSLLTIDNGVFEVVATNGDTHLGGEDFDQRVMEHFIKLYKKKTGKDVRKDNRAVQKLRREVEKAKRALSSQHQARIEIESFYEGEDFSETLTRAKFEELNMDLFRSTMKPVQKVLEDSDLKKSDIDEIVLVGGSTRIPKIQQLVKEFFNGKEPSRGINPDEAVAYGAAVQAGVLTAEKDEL
UniProt P05412: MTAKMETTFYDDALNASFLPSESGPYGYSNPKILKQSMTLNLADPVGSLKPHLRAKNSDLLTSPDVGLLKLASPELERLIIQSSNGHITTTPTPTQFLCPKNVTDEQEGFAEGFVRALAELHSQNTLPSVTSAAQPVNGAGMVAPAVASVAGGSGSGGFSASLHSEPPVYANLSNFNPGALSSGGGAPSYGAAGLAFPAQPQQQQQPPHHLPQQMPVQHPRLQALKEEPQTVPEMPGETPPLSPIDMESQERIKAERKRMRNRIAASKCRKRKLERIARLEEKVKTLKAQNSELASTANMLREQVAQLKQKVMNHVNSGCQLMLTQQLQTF
UniProt Q49AH0, residues 25-187: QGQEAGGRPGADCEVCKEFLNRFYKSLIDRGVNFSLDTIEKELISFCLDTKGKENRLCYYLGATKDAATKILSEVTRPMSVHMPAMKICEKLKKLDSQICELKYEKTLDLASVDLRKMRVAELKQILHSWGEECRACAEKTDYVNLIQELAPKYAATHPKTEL
UniProt P61244: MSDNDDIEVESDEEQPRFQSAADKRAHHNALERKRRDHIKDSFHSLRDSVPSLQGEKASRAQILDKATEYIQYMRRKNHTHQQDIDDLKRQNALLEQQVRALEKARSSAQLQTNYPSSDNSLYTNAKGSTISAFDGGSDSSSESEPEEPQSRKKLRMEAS

How the values were obtained:
Experiment in all cases: split reporter; split Venus BiFC; HEK293 cells co-transfected with pEZY BiFC N-Venus and C-Venus plasmids, fixed 20-24 h after transfection, confocal microscopy
[1] = molecular target: GRP78-NV (full-length GRP78 with N-Venus, BiFC construct) (UniProt P11021)
[2] = molecular target: nucleotide-binding domain of GRP78 (BiFC construct) (UniProt P11021)
[3] = molecular target: T1, GRP170-CV (GRP170 with C-Venus, BiFC construct) (UniProt Q9Y4L1)
T1 sequence: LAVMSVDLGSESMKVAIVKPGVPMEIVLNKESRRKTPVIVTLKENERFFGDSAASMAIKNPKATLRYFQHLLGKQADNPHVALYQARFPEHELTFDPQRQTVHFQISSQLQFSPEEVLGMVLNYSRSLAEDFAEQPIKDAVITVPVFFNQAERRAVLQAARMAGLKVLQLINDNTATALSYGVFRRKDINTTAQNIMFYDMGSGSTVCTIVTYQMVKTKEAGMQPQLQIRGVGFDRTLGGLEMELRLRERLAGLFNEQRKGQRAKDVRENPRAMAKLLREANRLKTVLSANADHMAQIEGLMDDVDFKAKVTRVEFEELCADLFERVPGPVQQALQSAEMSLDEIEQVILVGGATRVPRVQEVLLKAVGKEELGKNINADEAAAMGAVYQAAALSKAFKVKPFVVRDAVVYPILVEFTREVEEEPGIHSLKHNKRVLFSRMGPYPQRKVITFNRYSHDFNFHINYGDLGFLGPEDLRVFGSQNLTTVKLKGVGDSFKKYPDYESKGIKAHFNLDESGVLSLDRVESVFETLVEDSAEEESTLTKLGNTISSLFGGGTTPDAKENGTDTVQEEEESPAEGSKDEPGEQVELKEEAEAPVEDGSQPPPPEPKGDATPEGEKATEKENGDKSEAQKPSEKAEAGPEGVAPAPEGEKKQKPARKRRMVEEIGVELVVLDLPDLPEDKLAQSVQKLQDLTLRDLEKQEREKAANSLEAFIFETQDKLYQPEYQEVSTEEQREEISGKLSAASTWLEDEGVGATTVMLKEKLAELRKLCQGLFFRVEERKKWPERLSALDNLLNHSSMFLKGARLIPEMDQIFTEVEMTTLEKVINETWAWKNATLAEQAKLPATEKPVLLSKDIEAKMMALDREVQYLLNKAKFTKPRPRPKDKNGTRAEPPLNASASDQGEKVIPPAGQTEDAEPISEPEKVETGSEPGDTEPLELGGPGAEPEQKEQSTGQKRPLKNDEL

[4] = molecular target: Jun-NV (transcription factor Jun with N-Venus, BiFC construct) (UniProt P05412)

binding [1]: binds
binding [2]: binds
Molecule: pre-CV-CDNF (full-length CDNF with C-Venus, BiFC construct) (from UniProt Q49AH0 25-187)

binding [3]: binds
Molecule: pre-NV-CDNF (full-length CDNF with N-Venus, BiFC construct) (from UniProt Q49AH0 25-187)

binding [4]: no binding
Molecule: Max-CV (transcription factor Max with C-Venus, BiFC construct) (from UniProt P61244 1-160)

binding [1]: binds
B1: GRP170-CV (GRP170 with C-Venus, BiFC construct) (protein, UniProt Q9Y4L1 33-999)
chain: T1 sequence
